Measurements as given in patent publication US6414113B1, “Peptides binding to bone marrow stromal cell antigen” (Biomolecular Engineering Research Institute, priority 1998, dated 2002).

The chains behind the UniProt entries cited, without tags or fusion partners. Where a name states a change or a piece, a line headed by the entry shows the natural chain unless it says otherwise.
UniProt Q10588: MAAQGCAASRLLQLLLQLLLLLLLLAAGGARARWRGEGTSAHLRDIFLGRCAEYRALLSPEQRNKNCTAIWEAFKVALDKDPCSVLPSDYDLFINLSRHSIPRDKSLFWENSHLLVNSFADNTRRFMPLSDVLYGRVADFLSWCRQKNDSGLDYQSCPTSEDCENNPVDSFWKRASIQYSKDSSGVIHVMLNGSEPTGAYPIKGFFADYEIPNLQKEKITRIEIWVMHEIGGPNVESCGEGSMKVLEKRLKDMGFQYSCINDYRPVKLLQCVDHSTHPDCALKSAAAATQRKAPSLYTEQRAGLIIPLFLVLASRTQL

Assays:
[1] = molecular target: soluble human bone marrow stromal cell antigen-1 (BST-1) (human) (UniProt Q10588); experiment: Biacore SPR, legend of FIG. 6
[2] = molecular target: soluble human bone marrow stromal cell antigen-1 (BST-1) (human) (UniProt Q10588); experiment: affinity chromatography, SDS-PAGE with silver staining, legend of FIG. 8
[3] = molecular target: soluble human bone marrow stromal cell antigen-1 (BST-1) (human) (UniProt Q10588); experiment: affinity chromatography, SNPb-1 on avidin-agarose, elution with 1.0 M NaCl
[4] = molecular target: soluble human bone marrow stromal cell antigen-1 (BST-1) (human) (UniProt Q10588); experiment: phage ELISA, BST-1 captured by antibody BEC7

Binder	binding [1]	binding [2]	binding [3]	binding [4]
HSQISGKYQRYLKDA (amino group of the N-terminal bound with Sulfo-NHS-LC-Biotin) [bSNP-1 (SNP-1 biotinylated at the N-terminal)]	binds	–	–	–
HSQISGKYQRYLKDAK (biotin bound to the amino group of the added C-terminal Lys) [SNPb-1 (SNP-1 with an additional C-terminal Lys carrying biotin)]	binds	binds	binds	–
HSQISGKYQRYLKDA (not shown: phage coat protein of the Fuse 5 vector to which the peptide is fused; not specified) [phage SN-1 (phage expressing the peptide defined by SEQ ID NO: 1)]	–	–	–	binds

No constants are given. Whether binding was seen depends on the method and setting. Binding calls can cover weak binding; strength is not graded here.
